From PubChem BioAssay AID720504 (National Center for Advancing Translational Sciences (NCATS), 2013)
Among all 360,000 compounds or so, about 10,000 (2.8%) were called active. Inconclusive results, whose numbers are uncertain, are shown with a selection of clear calls. The call rests on the fitted dose curve; in most records, active means well fitted inhibition curve with a large enough effect; inconclusive means small, poorly fitted or top-dose-only effect; inactive means flat fitted curve, though single readings scatter. Potencies beside an inconclusive call are fits to weak or partial responses and may not hold up.

Sequences of proteins named here, by UniProt entry; tags and fusion partners are left off.
UniProt P53350, whole entry, looked up: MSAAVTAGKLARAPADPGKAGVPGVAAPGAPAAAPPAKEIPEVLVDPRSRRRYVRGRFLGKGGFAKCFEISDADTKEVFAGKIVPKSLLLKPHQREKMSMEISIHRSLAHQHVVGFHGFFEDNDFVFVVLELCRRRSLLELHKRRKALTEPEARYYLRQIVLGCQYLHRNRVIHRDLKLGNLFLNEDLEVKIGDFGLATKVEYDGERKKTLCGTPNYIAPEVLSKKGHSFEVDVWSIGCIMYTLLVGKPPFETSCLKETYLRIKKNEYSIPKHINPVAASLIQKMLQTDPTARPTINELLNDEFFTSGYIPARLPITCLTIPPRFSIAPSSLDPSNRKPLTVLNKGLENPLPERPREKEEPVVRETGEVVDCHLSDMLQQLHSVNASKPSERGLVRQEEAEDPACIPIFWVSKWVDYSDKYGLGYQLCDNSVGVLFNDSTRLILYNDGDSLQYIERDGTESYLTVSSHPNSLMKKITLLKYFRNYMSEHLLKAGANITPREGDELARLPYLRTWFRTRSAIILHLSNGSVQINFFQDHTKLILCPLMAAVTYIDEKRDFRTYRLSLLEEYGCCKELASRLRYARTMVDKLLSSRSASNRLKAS

target: Serine/threonine-protein kinase PLK1 (Homo sapiens) (UniProt P53350); assay: qHTS for Inhibitors of PLK1-PDB (polo-like kinase 1 - polo-box domain): Primary Screen; details: Plk1 PBD binding of FITC phosphopeptide, fluorescence polarization; further: nearly all actives have a fitted effect of over 65% in size; on max response, negative = inhibition: series mostly up to about 57 µM
On the % scale 0 is the no-effect control and ±100 the full control effect; potency means the concentration at half of the fitted maximal effect.

SMILES | Potency | max response, negative = inhibition
CCOC(=O)c1c(NC(C)=O)sc2c(OC)cccc12 | inconclusive: 29.9 µM [inhibitor, single point] | 
COc1ccc(-c2csc3[nH]c(=S)n(-c4ccccc4)c(=O)c23)cc1OC | inconclusive: 21.2 µM [inhibitor, partial curve] | 
CCCc1cc(C(N)=O)c(NC(C)=O)s1 | inconclusive: 22.4 µM [inhibitor, partial curve] | 
O=C1c2ccccc2C(=O)c2c(NCCCN(CCO)CCO)cccc21 | inconclusive: 15 µM [inhibitor, partial curve] | 
COc1ccc(N2CCN(CC(O)COc3ccc(C)c(C)c3)CC2)cc1 (stereo not given) |  | inactive: 1.2%
COc1ccc(CCNC(=O)CSCc2ccc([N+](=O)[O-])cc2)cc1OC | active: 9.47 µM | 
CCC1=NN2C(=N)/C(=C/c3ccc(OS(=O)(=O)c4ccccc4)cc3)C(=O)N=C2S1 | inconclusive: 26.7 µM [inhibitor, partial curve] | 
Cn1cccc1/C=C1\SC(=S)N(NC(=O)c2cccc(Cl)c2)C1=O |  | inactive: 35.3%
Cn1c(NC(=S)Nc2ccccc2)nc2ccccc21 | active: 23.8 µM | 
Cc1ccc(S(=O)(=O)N2CCN(C(=O)CSc3ccccn3)CC2)c(C)c1 | inconclusive: 29.9 µM [inhibitor, partial curve] | 
COc1ccc(-c2c(C#N)c(SCC(N)=O)nc3c2CCCC3)cc1 | inconclusive: 26.7 µM [inhibitor, single point] | 
CC(C)COP(=O)(c1ccc(N(C)C)cc1)C(O)c1ccc(N(C)C)cc1 (stereo not given) |  | inactive: 5.21%
COc1ccc(-n2cnc3cc(N)ccc32)cc1 |  | inactive: -0.195%
Cc1cc(C)c(S(=O)(=O)ON2C(=O)c3ccccc3C2=O)cc1C | active: 5.32 µM | 
Cc1ccc2c(c1)NC(=O)C(CC(=O)NCCN(CC(C)C)CC(C)C)O2 (stereo not given) |  | inconclusive: -33.5% [inhibitor]
Cc1ccccc1NC(=O)Cn1nnc(C(=O)NCc2ccco2)c1N | active: 26.7 µM | 
CCN(CC)S(=O)(=O)c1ccc(OC)c(NC(=O)/C=C/c2ccco2)c1 | inconclusive: 21.2 µM [inhibitor, partial curve] | 
Cc1cccc(C(=O)Nc2nnc(S(=O)(=O)N3CCOCC3)s2)c1 | inconclusive: 33.6 µM [inhibitor, partial curve] | 
O=C(NC1CCCCC1)C(c1ccc(F)cc1)N(Cc1ccccc1)C(=O)CN1C(=O)c2ccccc2S1(=O)=O (stereo not given) |  | inconclusive: -4.55% [inhibitor]
CC(C)(C)c1nc(NCCO)c2nnn(Cc3ccccc3)c2n1 | inconclusive: 26.7 µM [inhibitor, single point] | 
O=C1CCC2S/C(=C/Nc3ccc(C(F)(F)F)cc3)C(=O)N12 (stereo not given) | active: 9.47 µM | 
CNC(=S)NCc1ccc2[nH]c(C)cc2c1 | inconclusive: 26.7 µM [inhibitor, single point] | 
CC(C)(C)c1ccc(C(=O)NC(=S)NNC(=O)COc2ccccc2)cc1 | inconclusive: 29.9 µM [inhibitor, single point] | 

An excerpt of these results, with tabs.
SMILES	Potency	max response, negative = inhibition
COc1ccc(N2CCN(CC(O)COc3ccc(C)c(C)c3)CC2)cc1 (stereo not given)		inactive: 1.2%
COc1ccc(CCNC(=O)CSCc2ccc([N+](=O)[O-])cc2)cc1OC	active: 9.47 µM	
CCC1=NN2C(=N)/C(=C/c3ccc(OS(=O)(=O)c4ccccc4)cc3)C(=O)N=C2S1	inconclusive: 26.7 µM [inhibitor, partial curve]	
Cn1cccc1/C=C1\SC(=S)N(NC(=O)c2cccc(Cl)c2)C1=O		inactive: 35.3%
Cn1c(NC(=S)Nc2ccccc2)nc2ccccc21	active: 23.8 µM	
Cc1ccc(S(=O)(=O)N2CCN(C(=O)CSc3ccccn3)CC2)c(C)c1	inconclusive: 29.9 µM [inhibitor, partial curve]	
COc1ccc(-c2c(C#N)c(SCC(N)=O)nc3c2CCCC3)cc1	inconclusive: 26.7 µM [inhibitor, single point]	
CC(C)COP(=O)(c1ccc(N(C)C)cc1)C(O)c1ccc(N(C)C)cc1 (stereo not given)		inactive: 5.21%
COc1ccc(-n2cnc3cc(N)ccc32)cc1		inactive: -0.195%
Cc1cc(C)c(S(=O)(=O)ON2C(=O)c3ccccc3C2=O)cc1C	active: 5.32 µM	

Later entries.

SMILES | Potency | max response, negative = inhibition
OCCNc1nc(Nc2ccc(Br)cc2)nc2ccccc12 | inconclusive: 23.8 µM [inhibitor, single point] | 
Cc1cccc(C(=O)NC(=S)NNC(=O)COc2ccc(Cl)cc2)c1 | active: 26.7 µM | 
Cc1noc(C)c1CSc1nnc(-c2ccccc2)n1N | active: 21.2 µM | 
CCCC(=O)N1c2ccccc2C(=C2SC(C(=O)OC)=C(C(=O)OC)S2)C(=S)C1(C)C | inconclusive: 10.6 µM [inhibitor, partial curve] | 
CC(=O)Oc1cccc2c1C(=O)c1c(OC(C)=O)cc(C(=O)O)cc1C2=O | inconclusive: 21.2 µM [inhibitor, partial curve] | 
Cc1ccc2c(c1)c1n[nH]c(=S)nc1n2CCc1ccccc1 |  | inconclusive: -35.2% [inhibitor]
CSc1nnc(-c2cc(-c3ccc(C)cc3)nc3ccccc23)o1 |  | inactive: 0%
CCOC(=O)CSC1=C(C#N)C(c2ccc(OC)cc2)C2=C(CC(C)(C)CC2=O)N1 (stereo not given) | inconclusive: 10.6 µM [inhibitor, partial curve] | 
CCOc1ccc(/C(O)=C2/C(=O)C(=O)N(c3ccccn3)C2c2ccc(Cl)cc2)c(C)c1 (stereo not given) | inconclusive: 33.6 µM [inhibitor, partial curve] | 
COc1ccc2c(c1O)Cc1ccccc1C2=O | inconclusive: 26.7 µM [inhibitor, single point] | 
O=C(CC1OC(=O)c2ccccc21)Nc1cc(Cl)ccc1N1CCOCC1 (stereo not given) |  | inactive: -13.1%
COc1ccccc1CNC(=O)CCS(=O)(=O)c1ccc(Cl)cc1 | inconclusive: 21.2 µM [inhibitor, single point] | 
CCCOC(=O)Nc1nc(-c2ccc(C)cc2)c(C)s1 | inconclusive: 21.2 µM [inhibitor, partial curve] | 
CC(=O)Nc1c(OC(C)=O)ccc2c(C)cc(=O)oc12 | inconclusive: 29.9 µM [inhibitor, single point] | 
O=C(CCN1CCN(C(c2ccccc2)c2ccccc2)CC1)N/N=C/c1ccc(O)cc1 |  | inactive: -0.714%
COc1cccc(C2C(C(=O)OC(C)C)=C(C)N=c3s/c(=C\c4ccc(C(=O)O)cc4)c(=O)n32)c1 (stereo not given) | inconclusive: 23.8 µM [inhibitor, partial curve] | 
CCSC1=N/C(=C\c2ccc(C(=O)O)cc2)C(=O)S1 | inconclusive: 29.9 µM [inhibitor, single point] | 
Cc1sc2ncnc(SCC(=O)NC(=O)c3cccn3C)c2c1C | active: 16.8 µM | 
COc1ccc(CCN(C)C(=O)CSc2nnc(C3CC3)n2N)cc1OC |  | inconclusive: -32.5% [inhibitor]
O=C(CSc1nc2ccccc2o1)c1cc2ccccc2oc1=O | inconclusive: 18.9 µM [inhibitor, partial curve] | 
CC1=C(C#N)c2nc(N)c(C#N)c(C)c2/C1=C\c1ccc(-c2ccccc2C(=O)O)o1 | active: 26.7 µM | 
CC(C)(C)c1cc(CNC2CS(=O)(=O)C[C@@H]2O)cc(C(C)(C)C)c1O (stereo not given in full) | inconclusive: 23.8 µM [inhibitor, partial curve] | 
